Results on four molecules are retold here after paper PMC9951332.

By UniProt entry, the sequences of proteins in these tests, tags left out. Where a name states a change or a piece, a line headed by the entry shows the natural chain unless it says otherwise.
UniProt P19474: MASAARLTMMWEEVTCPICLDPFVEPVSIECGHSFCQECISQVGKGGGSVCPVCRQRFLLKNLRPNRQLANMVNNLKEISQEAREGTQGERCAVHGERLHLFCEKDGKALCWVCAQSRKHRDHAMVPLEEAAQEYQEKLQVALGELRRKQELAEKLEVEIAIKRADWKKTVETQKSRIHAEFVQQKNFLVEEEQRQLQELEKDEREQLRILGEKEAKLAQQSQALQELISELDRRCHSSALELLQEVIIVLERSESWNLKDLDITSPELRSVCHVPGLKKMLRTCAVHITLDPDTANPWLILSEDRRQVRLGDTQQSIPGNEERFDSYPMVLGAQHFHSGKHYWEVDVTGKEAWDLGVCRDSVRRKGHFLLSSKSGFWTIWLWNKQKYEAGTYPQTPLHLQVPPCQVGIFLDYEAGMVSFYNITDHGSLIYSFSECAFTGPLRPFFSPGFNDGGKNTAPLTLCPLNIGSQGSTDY

The target in assay [1] is TRIM21, endogenous (human (endogenous in PANC-1)) (UniProt P19474). In words: proximity ligation; Duolink In Situ Red Starter Kit Mouse/Rabbit in PANC-1 and BxPC-3 cells; mouse IgG as negative control.
The target is the same in assay [2]. In words: co-IP; endogenous proteins in PANC-1 (and L3.7) lysate, IP lysis buffer, antibody overnight at 4 °C, Protein A/G PLUS-Agarose, immunoblot; also in cells with CD73 overexpressed or knocked down, with Snail changed, or treated with diclofenac.
In assay [3] the target is HA tagged TRIM21, wild type (HEK-293T) (UniProt P19474). As to the kind of experiment: co-IP; HA tagged TRIM21 or its deletion mutants co-transduced with His-CD73 or Flag-Snail into HEK-293T cells, immunoprecipitated with an anti-HA antibody, Western blot.
Assay [4] deals with ectopically expressed TRIM21 (co-IP of Figure S6B) (UniProt P19474). As to the kind of experiment: co-IP; ectopically expressed CD73 and TRIM21 (Figure S6B); cells and tags not given.
Assay [5] addresses GST-TRIM21, recombinant (UniProt P19474). As to the kind of experiment: pull-down; Pierce GST Protein Interaction Pull Down Kit; GST or GST-TRIM21 on glutathione agarose, incubated with recombinant CD73 or Snail, eluted, immunoblot; both purified. (In general: A western blot detects proteins with antibodies after separation by electrophoresis.)

Results are given in words; binding and its absence hold for the method and conditions named. For some assays here: In cells and extracts the contact can be indirect. Some entries that bind do so weakly or less than the wild type. For some assays here: Tags and fused reporters may be left off the sequences shown.

B1: CD73 (NT5E, ecto-5-nucleotidase), endogenous (protein, UniProt P21589 27-549)
chain: WELTILHTNDVHSRLEQTSEDSSKCVNASRCMGGVARLFTKVQQIRRAEPNVLLLDAGDQYQGTIWFTVYKGAEVAHFMNALRYDAMALGNHEFDNGVEGLIEPLLKEAKFPILSANIKAKGPLASQISGLYLPYKVLPVGDEVVGIVGYTSKETPFLSNPGTNLVFEDEITALQPEVDKLKTLNVNKIIALGHSGFEMDKLIAQKVRGVDVVVGGHSNTFLYTGNPPSKEVPAGKYPFIVTSDDGRKVPVVQAYAFGKYLGYLKIEFDERGNVISSHGNPILLNSSIPEDPSIKADINKWRIKLDNYSTQELGKTIVYLDGSSQSCRFRECNMGNLICDAMINNNLRHTDEMFWNHVSMCILNGGGIRSPIDERNNGTITWENLAAVLPFGGTFDLVQLKGSTLKKAFEHSVHRYGQSTGEFLQVGGIHVVYDLSRKPGDRVVKLDVLCTKCRVPSYDPLKMDEVYKVILPNFLANGGDGFQMIKDELLRHDSGDQDINVVSTYISKMKVIYPAVEGRIKFS
For the molecule B1, the binding entry in assay [1] and in assay [2] was “binds” throughout.

B2: His-CD73 (HEK-293T) (protein, UniProt P21589 27-549)
chain: B1 chain
For the molecule B2, in assay [3], the binding entry is given as “binds”.

B3: ectopically expressed CD73 (co-IP of Figure S6B) (protein, UniProt P21589 27-549)
chain: B1 chain
B3: the binding result in assay [4] was “binds”.

B4: His-CD73, recombinant (GST pull-down) (protein, UniProt P21589 27-549)
chain: B1 chain
As to B4, the binding result in assay [5] was “binds”.
